Laboratory results from PMC4837458.

Key:
[1] = system: dPPR-U8A2 N318S,D348N,N353S,D383N; assay: X-ray crystallography; details: 2.60 A; recombinant protein; protein details: C-terminal 6xHis
dPPR-U8G2 N318T,N353T [2] = assay: X-ray crystallography; details: 2.53 A; recombinant protein; protein details: C-terminal 6xHis
[3] = system: dPPR-U8A2 N318S,D348N,N353S,D383N; assay: EMSA; details: reduced or abolished; EMSA: 25 mM Tris-HCl pH 8.0, 5 mM MgCl2, 5 mM DTT, 0.1 mg/ml BSA, 50 ng/ml heparin, 10% glycerol, ~2 nM 32P-RNA, 20 min on ice; recombinant protein; protein details: C-terminal 6xHis; label: 5'-32P
dPPR-U8G2 N318T,N353T [4] = assay: EMSA; details: reduced or abolished; EMSA: 25 mM Tris-HCl pH 8.0, 5 mM MgCl2, 5 mM DTT, 0.1 mg/ml BSA, 50 ng/ml heparin, 10% glycerol, ~2 nM 32P-RNA, 20 min on ice; recombinant protein; protein details: C-terminal 6xHis; label: 5'-32P

“GGGGUUUUAAUUUUCCCC [18-nt U8A2 crystal RNA]”: binds [1].
“GGGGUUUUGGUUUUCCCC [18-nt U8G2 crystal RNA]”: binds (dPPR-U8G2 N318T,N353T [2]).
UUUUUUUUUU [U10 target]: binds more weakly [3]; binds more weakly (dPPR-U8G2 N318T,N353T [4]).

For at least one entry, the source does not settle the construct or the ends of the probe. For some of these results: Weaker means in comparison with the reference protein, sequence or condition of that experiment. For some of these results: At least one verdict rests on a figure or table, not on a statement of the authors.
